In article PMC3633876 one finds binding data, which are given here for one molecule.

Protein sequences, listed by entry. Tags and fused reporters are not part of them.
UniProt Q92786: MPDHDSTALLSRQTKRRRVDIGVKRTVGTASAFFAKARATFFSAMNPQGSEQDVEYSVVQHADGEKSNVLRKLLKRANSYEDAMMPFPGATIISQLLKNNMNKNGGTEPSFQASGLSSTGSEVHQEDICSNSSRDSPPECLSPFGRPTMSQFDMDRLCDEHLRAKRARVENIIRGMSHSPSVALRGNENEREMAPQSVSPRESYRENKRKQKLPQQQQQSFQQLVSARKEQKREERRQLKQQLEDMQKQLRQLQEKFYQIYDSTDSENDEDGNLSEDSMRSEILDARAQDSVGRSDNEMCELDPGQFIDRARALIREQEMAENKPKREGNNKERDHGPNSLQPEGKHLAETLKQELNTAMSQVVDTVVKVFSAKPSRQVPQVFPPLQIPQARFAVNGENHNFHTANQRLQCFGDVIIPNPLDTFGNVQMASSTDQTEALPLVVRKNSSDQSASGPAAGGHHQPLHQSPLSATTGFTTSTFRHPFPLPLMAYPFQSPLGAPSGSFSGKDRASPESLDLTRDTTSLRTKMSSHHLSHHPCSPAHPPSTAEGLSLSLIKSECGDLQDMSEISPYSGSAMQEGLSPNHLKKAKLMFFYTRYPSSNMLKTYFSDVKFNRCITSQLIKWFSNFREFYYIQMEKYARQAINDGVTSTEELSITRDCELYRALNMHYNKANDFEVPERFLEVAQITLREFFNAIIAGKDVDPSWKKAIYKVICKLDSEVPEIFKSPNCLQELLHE

Results are given in words; binding and its absence hold for the method and conditions named. Binding seen in cells or lysates may run through a third protein. Some entries that bind do so weakly or less than the wild type.

This test has as its target endogenous Prox1 in HepG2 (human (endogenous in HepG2)) (UniProt Q92786). The test can be described thus: co-IP; HepG2 lysate in RIPA buffer; endogenous Prox1 precipitated with anti-Prox1 antibody (Upstate) on protein A/G agarose beads; partners detected by Western blot; also with DNaseI (0.1 µg/µl) and RNaseA (0.2 µg/µl).

B1: hepatocyte nuclear factor 4α (HNF4α), endogenous (protein, UniProt P41235 1-474)
chain: MRLSKTLVDMDMADYSAALDPAYTTLEFENVQVLTMGNDTSPSEGTNLNAPNSLGVSALCAICGDRATGKHYGASSCDGCKGFFRRSVRKNHMYSCRFSRQCVVDKDKRNQCRYCRLKKCFRAGMKKEAVQNERDRISTRRSSYEDSSLPSINALLQAEVLSRQITSPVSGINGDIRAKKIASIADVCESMKEQLLVLVEWAKYIPAFCELPLDDQVALLRAHAGEHLLLGATKRSMVFKDVLLLGNDYIVPRHCPELAEMSRVSIRILDELVLPFQELQIDDNEYAYLKAIIFFDPDAKGLSDPGKIKRLRSQVQVSLEDYINDRQYDSRGRFGELLLLLPTLQSITWQMIEQIQFIKLFGMAKIDNLLQEMLLGGSPSDAPHAHHPLHPHLMQEHMGTNVIVANTMPTHLSNGQMCEWPRPRGQAATPETPQPSPPGGSGSEPYKLLPGAVATIVKPLSAIPQPTITKQEVI
For B1, the binding result is “binds”.
